# Reference: PubChem BioAssay AID540336 (Broad Institute, 2011)
# Chains of the proteins cited; added tags and fusions are not shown.
# UniProt Q5AAJ8, whole entry: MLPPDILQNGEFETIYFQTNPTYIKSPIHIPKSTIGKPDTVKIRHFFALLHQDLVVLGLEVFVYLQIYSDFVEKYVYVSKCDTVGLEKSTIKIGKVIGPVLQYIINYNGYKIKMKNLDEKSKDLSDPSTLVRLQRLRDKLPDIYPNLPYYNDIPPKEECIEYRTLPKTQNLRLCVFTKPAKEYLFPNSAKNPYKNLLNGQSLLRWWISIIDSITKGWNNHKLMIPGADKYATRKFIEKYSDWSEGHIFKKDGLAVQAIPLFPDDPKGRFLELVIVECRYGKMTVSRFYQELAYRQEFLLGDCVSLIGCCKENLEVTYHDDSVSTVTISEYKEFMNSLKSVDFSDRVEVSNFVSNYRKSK
# Hit rate of the full screen: of about 330,000 compounds, about 520 (0.16%) were called active. Only results without a clear call are listed here; the source files them as inconclusive.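 How the source made its calls: active means inhibition of at least 50% in every replicate; inconclusive means best replicate reaches 50% inhibition but some replicates fall short; inactive means the rest.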
# Target: Histone acetyltransferase RTT109 (Candida albicans (strain SC5314 / ATCC MYA-2876)) (UniProt Q5AAJ8)
# Assay: Rtt109-Vps75 histone acetyltransferase blockade – biochemical, ThioGlo CoA-SH fluorescence, plate reader, primary screen (AID 540336)
# Conditions: purified Rtt109/Vps75, ThioGlo CoA-SH fluorescence, 4 h; at 34.9 µM; active compounds read high
row,Structure (SMILES),inhibition
1,COc1ccc(C(=O)NCC2(N3CCCCC3)CCCCC2)cc1,inconclusive: 63.1%
